The target of this experiment is Yeast ubiquitin (yeast) (UniProt P0CG63). The experiment in a line: clone from phage panning on immobilized ubiquitin; no ELISA of the single clone reported.

Chains of the proteins cited; added tags and fusions are not shown. Residues count along the entry.
UniProt P0CG63, residues 1-76: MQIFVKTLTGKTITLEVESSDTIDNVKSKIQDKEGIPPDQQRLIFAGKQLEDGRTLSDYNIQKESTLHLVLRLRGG

Numbering of substitutions follows the chain as printed. These are yes or no findings as the source states them, for the method shown. Some entries that bind do so weakly or less than the wild type.

B1: ubiquitin-binding monobody 422 (designed binder, not shown: large carriers)
chain: MQVSDVPRDLEVVAATPTSLLISWDAPARWTLYYRITYGETGGNSPVQEFTVPGSKSTATISGLKPGVDYTITVYAVTRRWWWSKPISINYRT
On to B1, for which the binding result is listed as “binds”.

B2: ubiquitin-binding monobody 424 (designed binder, not shown: large carriers)
chain: B1 chain with A28G, R29Q, W30R, L32F, W83A
As to B2, the binding entry was “binds”.

B3: ubiquitin-binding monobody 212 (designed binder, not shown: large carriers)
chain: MQVSDVPRDLEVVAATPTSLLISWDAPCWRRAYYRITYGETGGNSPVQEFTVPGSKSTATISGLKPGVDYTITVYAVTGRWVGLAWSKPISINYRT
B3: the binding entry was “binds”.

B4: ubiquitin-binding monobody 213 (designed binder, not shown: large carriers)
chain: B3 chain with W29K, R30H, A32R, R80F, W81A, V82D, G83L, L84W, A85W, W86R
B4: the binding result is given as “binds”.

B5: ubiquitin-binding monobody 214 (designed binder, not shown: large carriers)
chain: B3 chain with W29R, R31G, A32R, W81G, V82F, G83M, L84W, A85L, W86S
On to B5, for which the binding entry is “binds”.

B6: ubiquitin-binding monobody 215 (designed binder, not shown: large carriers)
chain: B3 chain with W29N, R30W, A32R, W81A, V82Y, G83R, L84Y, A85R
On to B6, for which the binding result is listed as “binds”.

B7: ubiquitin-binding monobody 211 (designed binder, not shown: large carriers)
chain: B3 chain with W29A, V82I, G83P, W86K
Regarding B7, the binding entry is given as “binds”.
